Laboratory results published in PubChem BioAssay AID2662 (National Center for Advancing Translational Sciences (NCATS), 2010).
Hit rate of the full screen: of about 290,000 compounds, about 110 (0.038%) were called active. Inconclusive results, whose numbers are uncertain, are shown with a selection of clear calls. Calls follow the shape of the dose curve; as a rule, active = well fitted inhibition curve with a large enough effect in the polarisation, with a control signal flat (not every such curve was filed as active); inconclusive = small, poorly fitted or top-dose-only effect, or effect the other way, or a change in a side signal; inactive = no such curve, though single readings can be large or run the other way; the % refers to the polarisation. A potency beside an inconclusive call is a rough fit, not a confirmed value. “Side channel” marks fits to a control or component signal instead of the main read-out.

The chains behind the UniProt entries cited, without tags or fusion partners.
UniProt Q03164, whole entry, looked up: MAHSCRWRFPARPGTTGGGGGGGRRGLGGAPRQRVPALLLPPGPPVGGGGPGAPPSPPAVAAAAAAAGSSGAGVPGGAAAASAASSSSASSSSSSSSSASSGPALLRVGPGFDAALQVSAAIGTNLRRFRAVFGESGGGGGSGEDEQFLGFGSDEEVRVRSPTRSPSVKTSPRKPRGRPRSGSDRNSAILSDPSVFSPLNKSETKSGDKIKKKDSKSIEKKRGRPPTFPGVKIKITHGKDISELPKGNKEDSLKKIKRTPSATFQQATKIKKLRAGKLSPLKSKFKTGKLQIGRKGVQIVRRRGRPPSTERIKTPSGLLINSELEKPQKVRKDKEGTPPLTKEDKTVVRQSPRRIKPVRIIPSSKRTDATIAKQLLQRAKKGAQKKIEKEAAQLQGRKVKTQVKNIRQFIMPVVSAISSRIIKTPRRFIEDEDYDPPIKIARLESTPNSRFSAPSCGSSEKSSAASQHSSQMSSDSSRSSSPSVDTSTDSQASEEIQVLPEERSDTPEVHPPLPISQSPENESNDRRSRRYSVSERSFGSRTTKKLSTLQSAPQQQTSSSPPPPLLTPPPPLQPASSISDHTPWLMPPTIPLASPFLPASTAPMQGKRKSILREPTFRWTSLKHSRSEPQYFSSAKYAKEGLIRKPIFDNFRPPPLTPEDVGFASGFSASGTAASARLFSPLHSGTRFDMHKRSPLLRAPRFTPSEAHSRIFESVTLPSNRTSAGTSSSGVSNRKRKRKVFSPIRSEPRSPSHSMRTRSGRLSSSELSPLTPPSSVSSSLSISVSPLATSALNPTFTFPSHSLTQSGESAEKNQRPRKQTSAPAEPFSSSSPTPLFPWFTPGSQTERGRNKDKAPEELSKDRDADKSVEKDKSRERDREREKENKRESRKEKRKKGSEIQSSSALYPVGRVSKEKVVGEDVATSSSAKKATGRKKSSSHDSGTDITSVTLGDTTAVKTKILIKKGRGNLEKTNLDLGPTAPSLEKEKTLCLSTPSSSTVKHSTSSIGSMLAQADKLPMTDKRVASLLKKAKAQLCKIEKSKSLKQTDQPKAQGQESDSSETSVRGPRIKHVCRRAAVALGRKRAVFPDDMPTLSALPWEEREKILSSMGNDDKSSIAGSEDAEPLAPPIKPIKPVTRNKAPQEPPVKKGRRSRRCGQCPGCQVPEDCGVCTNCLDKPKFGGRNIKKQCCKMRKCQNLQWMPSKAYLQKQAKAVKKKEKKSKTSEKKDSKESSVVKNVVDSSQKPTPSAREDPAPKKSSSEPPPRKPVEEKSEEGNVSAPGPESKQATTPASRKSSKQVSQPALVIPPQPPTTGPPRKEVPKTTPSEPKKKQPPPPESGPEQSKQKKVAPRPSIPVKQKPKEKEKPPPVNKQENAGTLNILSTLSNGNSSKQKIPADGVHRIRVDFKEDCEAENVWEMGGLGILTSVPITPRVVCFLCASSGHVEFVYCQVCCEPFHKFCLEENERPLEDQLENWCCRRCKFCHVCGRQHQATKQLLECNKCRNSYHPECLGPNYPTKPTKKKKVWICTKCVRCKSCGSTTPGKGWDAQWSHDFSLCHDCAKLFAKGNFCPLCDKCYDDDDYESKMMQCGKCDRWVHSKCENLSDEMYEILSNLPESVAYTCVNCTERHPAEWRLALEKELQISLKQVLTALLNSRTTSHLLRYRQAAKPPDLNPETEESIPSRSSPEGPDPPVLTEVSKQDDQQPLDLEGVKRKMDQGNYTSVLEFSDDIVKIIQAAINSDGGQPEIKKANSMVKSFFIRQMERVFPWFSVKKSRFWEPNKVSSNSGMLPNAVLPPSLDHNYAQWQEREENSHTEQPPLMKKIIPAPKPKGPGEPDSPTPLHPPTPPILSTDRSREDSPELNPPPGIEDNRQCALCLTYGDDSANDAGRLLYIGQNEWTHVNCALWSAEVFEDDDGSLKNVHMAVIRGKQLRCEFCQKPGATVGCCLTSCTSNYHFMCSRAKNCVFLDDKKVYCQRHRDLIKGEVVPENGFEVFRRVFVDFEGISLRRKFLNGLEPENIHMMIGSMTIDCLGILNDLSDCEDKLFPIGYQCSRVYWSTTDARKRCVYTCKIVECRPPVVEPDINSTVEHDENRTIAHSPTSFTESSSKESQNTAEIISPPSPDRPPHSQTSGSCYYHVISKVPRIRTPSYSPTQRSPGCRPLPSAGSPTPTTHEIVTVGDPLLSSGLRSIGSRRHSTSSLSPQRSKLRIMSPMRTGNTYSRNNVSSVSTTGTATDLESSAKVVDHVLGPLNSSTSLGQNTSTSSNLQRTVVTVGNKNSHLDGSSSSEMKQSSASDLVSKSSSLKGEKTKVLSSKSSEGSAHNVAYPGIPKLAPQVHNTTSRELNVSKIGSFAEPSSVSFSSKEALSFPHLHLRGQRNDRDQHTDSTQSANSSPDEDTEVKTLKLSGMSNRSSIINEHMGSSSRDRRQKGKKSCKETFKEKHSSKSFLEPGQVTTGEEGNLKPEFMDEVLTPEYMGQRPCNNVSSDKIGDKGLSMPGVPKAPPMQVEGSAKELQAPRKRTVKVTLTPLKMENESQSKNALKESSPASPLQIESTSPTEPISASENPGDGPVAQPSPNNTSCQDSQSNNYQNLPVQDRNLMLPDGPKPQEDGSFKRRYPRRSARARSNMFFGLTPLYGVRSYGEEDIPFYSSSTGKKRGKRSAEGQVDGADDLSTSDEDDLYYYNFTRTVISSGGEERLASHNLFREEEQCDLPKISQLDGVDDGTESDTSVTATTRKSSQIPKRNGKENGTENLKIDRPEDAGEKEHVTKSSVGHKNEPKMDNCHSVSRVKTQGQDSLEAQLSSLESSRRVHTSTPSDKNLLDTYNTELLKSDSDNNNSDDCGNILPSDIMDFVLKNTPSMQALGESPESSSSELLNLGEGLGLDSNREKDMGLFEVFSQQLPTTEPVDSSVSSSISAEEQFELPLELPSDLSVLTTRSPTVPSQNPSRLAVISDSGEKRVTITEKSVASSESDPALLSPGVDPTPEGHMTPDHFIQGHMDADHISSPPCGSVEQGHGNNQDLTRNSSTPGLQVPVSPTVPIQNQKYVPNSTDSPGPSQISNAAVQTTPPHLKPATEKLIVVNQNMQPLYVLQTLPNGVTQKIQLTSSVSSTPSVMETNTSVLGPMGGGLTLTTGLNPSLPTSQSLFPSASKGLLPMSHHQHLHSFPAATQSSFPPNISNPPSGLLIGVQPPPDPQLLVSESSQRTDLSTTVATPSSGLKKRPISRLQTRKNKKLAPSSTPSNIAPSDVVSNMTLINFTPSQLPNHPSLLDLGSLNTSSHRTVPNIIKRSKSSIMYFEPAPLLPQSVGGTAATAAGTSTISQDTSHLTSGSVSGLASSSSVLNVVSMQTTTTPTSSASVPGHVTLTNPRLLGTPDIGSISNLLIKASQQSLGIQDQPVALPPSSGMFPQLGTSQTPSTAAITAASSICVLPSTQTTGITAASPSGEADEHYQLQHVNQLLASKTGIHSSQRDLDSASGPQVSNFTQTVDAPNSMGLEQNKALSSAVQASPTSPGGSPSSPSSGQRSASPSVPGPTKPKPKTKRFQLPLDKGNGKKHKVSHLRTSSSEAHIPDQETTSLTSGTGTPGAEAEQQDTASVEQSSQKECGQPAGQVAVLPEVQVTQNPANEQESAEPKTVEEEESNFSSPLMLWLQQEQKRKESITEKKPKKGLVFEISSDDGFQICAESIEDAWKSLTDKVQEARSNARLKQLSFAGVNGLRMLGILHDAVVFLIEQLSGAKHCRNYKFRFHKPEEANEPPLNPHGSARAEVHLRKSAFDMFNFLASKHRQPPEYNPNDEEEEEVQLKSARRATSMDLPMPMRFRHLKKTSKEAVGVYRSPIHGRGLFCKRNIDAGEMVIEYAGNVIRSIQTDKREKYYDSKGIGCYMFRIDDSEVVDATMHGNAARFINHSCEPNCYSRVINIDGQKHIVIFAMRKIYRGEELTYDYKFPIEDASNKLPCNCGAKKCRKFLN

target: Histone-lysine N-methyltransferase 2A (Homo sapiens) (UniProt Q03164); test: qHTS Fluorescence Polarization Assay for Inhibitors of MLL CXXC domain - DNA interaction; details: MLL-CXXC / FITC-HOXA9 DNA fluorescence polarization; activity change, negative = inhibition: at 115 µM (top of the series)
Summary of the method: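 Fluorescence polarization: 7 uM MLL-CXXC (stock) preincubated 5 min with compounds, then 50 nM fluorescein-HOX-A9 DNA (stock) added; 30 min ambient. Buffer 50 mM Tris-HCl pH 7.5, 50 mM NaCl, 1 mM DTT, 0.05% BSA.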
Potency is read from the fitted curve at half-maximal effect.

| SMILES | Potency | activity change, negative = inhibition |
| --- | --- | --- |
| CC(C)(C)NC[C@H](O)c1cc(O)cc(O)c1 | inconclusive: 12.6 µM [fluorescent, side channel, full curve] |  |
| O=c1c(O)c(-c2cc(O)c(O)c(O)c2)oc2cc(O)cc(O)c12 | inconclusive: 31.6 µM [fluorescent, partial curve] |  |
| CCN(CC)CCCNc1cc(C(F)(F)F)c(C#N)c2nc3ccccc3n12 | inconclusive: 8.91 µM [fluorescent, side channel, partial curve] |  |
| CCOC(=O)/C(C#N)=C/c1cc2ccccc2nc1N1CCCCC1 | inconclusive: 89.1 µM [fluorescent, side channel, single point] |  |
| S=C(NCCCc1ccccc1)Nc1ccccc1 | inconclusive: 11.2 µM [inhibitor, partial curve] |  |
| Cc1ccccc1NC(=O)Cn1c(=O)n(Cc2ccccc2)c(=O)c2c(C)c(C)sc21 | inconclusive: 44.7 µM [inhibitor, single point] |  |
| Cc1cc(NC(=O)CSCc2ccc([N+](=O)[O-])cc2)no1 | inconclusive: 11.2 µM [inhibitor, single point] |  |
| COc1ccc(NC(=S)NNc2ccc(S(=O)(=O)Nc3ccccc3C(=O)O)cc2[N+](=O)[O-])cc1 |  | inactive: -3.72% |
| CC1CCN(CC(=O)Nc2nn(-c3ccccc3)nc2C(N)=O)CC1 | inconclusive: 112 µM [inhibitor, partial curve, poor fit] |  |
| O=C1NC2=C(C(=O)CCC2)C(c2ccc3ncccc3c2)N1 (stereo not given) |  | inactive: 3.58% |
| O=C(O)CCCNc1cc(N2CCN(C(=O)c3ccco3)CC2)c2noc3c2c1C(=O)c1ccccc1-3 | inconclusive: 8.91 µM [fluorescent, side channel, full curve] |  |
| O=C(Nc1ccccc1)C1=C(c2ccccc2)S(=O)(=O)CCS1(=O)=O | inconclusive: 35.5 µM [inhibitor, single point] |  |
| O=c1c(O)cccc2cc(O)c(O)c(O)c12 | inconclusive: 35.5 µM [inhibitor, single point] |  |
| COCCNC(=O)Nc1ccc2nc(-c3ccco3)c(-c3ccco3)nc2c1 | inconclusive: 70.8 µM [inhibitor, single point] |  |
| O=C1c2cccc3cccc(c23)C(=O)N1c1ccc(O)cc1 |  | inactive: -1.77% |
| CC(=O)c1ccc(N2C(=O)C3C(C2=O)C(C(=O)c2ccc(Cl)cc2)N2CCCC32)cc1 (stereo not given) | inconclusive: 31.6 µM [fluorescent, side channel, partial curve] |  |
| Cc1[nH]c2ccccc2c1C(=O)/C=C/c1ccccc1 | inconclusive: 3.16 µM [inhibitor, partial curve] |  |
| CCCCCc1cc(=O)oc2c(C(CCN3CCCC(C)C3)c3ccc4c(c3)OCO4)c(OC)cc(OC)c12 (stereo not given) | inconclusive: 35.5 µM [quencher, side channel, single point] |  |
| CCOc1ccc2nc(/N=C/c3nc(-c4ccc(Br)cc4)oc3O)sc2c1 | inconclusive: 50.1 µM [fluorescent, side channel, partial curve] |  |
| CC(=O)N(Cc1cc(=O)[nH]c2ccccc12)c1ccccc1C | inconclusive: 89.1 µM [quencher, side channel, single point] |  |

Part of the list above in order of formula weight, ascending.

| SMILES | Potency | activity change, negative = inhibition |
| --- | --- | --- |
| CC(C)(C)NC[C@H](O)c1cc(O)cc(O)c1 | inconclusive: 12.6 µM [fluorescent, side channel, full curve] |  |
| Cc1cc(NC(=O)CSCc2ccc([N+](=O)[O-])cc2)no1 | inconclusive: 11.2 µM [inhibitor, single point] |  |
| CCN(CC)CCCNc1cc(C(F)(F)F)c(C#N)c2nc3ccccc3n12 | inconclusive: 8.91 µM [fluorescent, side channel, partial curve] |  |

Remaining list, next part:

| SMILES | Potency | activity change, negative = inhibition |
| --- | --- | --- |
| COc1cc(/C=C2\SC(=O)NC2=O)ccc1Oc1ccc([N+](=O)[O-])cc1[N+](=O)[O-] | inconclusive: 50.1 µM [quencher, side channel, single point] |  |
| COc1ccc(NC(=O)COC(=O)Cn2nnc3ccccc32)cc1 | inconclusive: 14.1 µM [quencher, side channel, single point] |  |
| CC1CCN(C(=O)c2ccc([N+](=O)[O-])o2)CC1 |  | inactive: 5.8% |
| COc1ccc(-c2cn3ccc4ccccc4c3n2)cc1 |  | inactive: -6.76% |
| O=C1/C(=C/C=C/c2ccccc2)Oc2c1ccc(O)c2CN1CCN(CCO)CC1 | inconclusive: 35.5 µM [fluorescent, side channel, partial curve] |  |
| CCCCC1(C)OC(=O)C(=Cc2ccc(N(C)C)cc2)C(=O)O1 (stereo not given) | inconclusive: 31.6 µM [inhibitor, partial curve] |  |
| O=C1/C(=C/c2ccc(O)c([N+](=O)[O-])c2)SC(=S)N1Cc1ccccc1 |  | inactive: 2.68% |
| O=C(CSc1nnc(CNC(=O)c2cccs2)o1)Nc1ccccc1F | inconclusive: 10 µM [quencher, side channel, single point] |  |
| O=C(Nc1nc2ccccc2[nH]1)Nc1ccccc1F |  | inactive: -7.64% |
| Cc1ccc(-c2csc3nc4c5ccccc5c(NCCCN(C)C)nn4c(=O)c23)cc1 | inconclusive: 31.6 µM [quencher, single point] |  |
| CCOC(=O)C1(Cc2cccc(OC)c2)CCCN(CCO)C1 (stereo not given) |  | inactive: -5.72% |
| C=CCC1=C/C(=C\c2c(N)n3nc(CC(=O)N4CCCC4)sc3nc2=O)C=C(OC)C1=O | inconclusive: 25.1 µM [fluorescent, side channel, partial curve] |  |
| COc1ccc(-c2nc(CS(=O)CC(=O)NCc3ccccn3)c(C)o2)cc1 (stereo not given) | inconclusive: 35.5 µM [inhibitor, single point] |  |
| Cc1ccc(C(=O)NC2CCCN(c3ccc(C(F)(F)F)cn3)C2)cn1 (stereo not given) | inconclusive: 14.1 µM [quencher, side channel, single point] |  |
| S=c1[nH]nc(COc2ccccc2)n1C1CCCCC1 |  | inactive: 6.09% |
| COc1ccc2[nH]c3c(C)c4ccncc4c(C)c3c2c1 | inconclusive: 2.82 µM [quencher, side channel, full curve] |  |
| Cc1nc2sc(C(=O)OC(C)C)c(N)c2c(C)c1C | inconclusive: 39.8 µM [fluorescent, side channel, partial curve] |  |
| c1ccc(C2=NNC(=NC3CC3)SC2)cc1 | inconclusive: 35.5 µM [fluorescent, side channel, single point] |  |
| CC(C)(C)n1nnnc1C(c1ccccn1)N1CCN(C(c2ccccc2)c2ccccc2)CC1 (stereo not given) |  | inactive: -3.11% |
| COc1ccc(NC(=O)c2sc3nc(-c4cccnc4)ccc3c2N)cc1OC | inconclusive: 44.7 µM [fluorescent, side channel, single point] |  |
